No constants are given. Whether binding was seen depends on the method and setting. For some assays here: In cells and extracts the contact can be indirect.
Columns and labels:
6His-PFN1 (wt) (human) = 6His-PFN1 (wt) (human) (UniProt P07737); assay: condition: 2 µg PP1Cα in 100 µl; 10 µg 6His-PFN1 on beads; pull-down; 10 µg 6His-PFN1 held on 20 µl Ni-NTA beads (pre-blocked with 1% BSA); 2 µg recombinant PP1Cα in 100 µl 10 mM Tris-HCl pH 7.4, 150 mM NaCl, 0.1% BSA, 0.1% Triton X-100; 1 hr at 4°C, 4 washes; Western blot for PP1Cα; both purified
[1] = biological target: Myc-PP2ACα, alpha isoform of the protein phosphatase 2A catalytic subunit (UniProt P67775); assay: co-IP; HEK293 cells co-transfected with Myc-tagged phosphatase and PFN1 (untagged or HA-tagged); lysis in 50 mM Tris-HCl pH 7.4, 150 mM NaCl, 0.1% Triton X-100; anti-Myc agarose beads, 2 hr at 4°C, 4 washes; Western blot for PFN1 or the HA tag

Amino acid sequences for entries named in this document (tags omitted).
UniProt P07737: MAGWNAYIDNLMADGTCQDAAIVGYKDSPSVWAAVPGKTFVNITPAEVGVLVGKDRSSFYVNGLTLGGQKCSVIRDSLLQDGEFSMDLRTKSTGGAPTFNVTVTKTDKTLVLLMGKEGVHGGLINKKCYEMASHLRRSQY
UniProt P67775: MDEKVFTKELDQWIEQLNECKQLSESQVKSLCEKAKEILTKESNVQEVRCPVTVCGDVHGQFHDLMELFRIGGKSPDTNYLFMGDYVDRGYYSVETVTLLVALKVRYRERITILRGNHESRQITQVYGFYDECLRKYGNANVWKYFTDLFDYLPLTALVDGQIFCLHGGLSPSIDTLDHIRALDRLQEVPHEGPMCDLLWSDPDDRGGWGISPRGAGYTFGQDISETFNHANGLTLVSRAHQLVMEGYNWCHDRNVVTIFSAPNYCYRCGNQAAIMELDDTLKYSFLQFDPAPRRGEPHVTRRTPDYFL
UniProt P62139: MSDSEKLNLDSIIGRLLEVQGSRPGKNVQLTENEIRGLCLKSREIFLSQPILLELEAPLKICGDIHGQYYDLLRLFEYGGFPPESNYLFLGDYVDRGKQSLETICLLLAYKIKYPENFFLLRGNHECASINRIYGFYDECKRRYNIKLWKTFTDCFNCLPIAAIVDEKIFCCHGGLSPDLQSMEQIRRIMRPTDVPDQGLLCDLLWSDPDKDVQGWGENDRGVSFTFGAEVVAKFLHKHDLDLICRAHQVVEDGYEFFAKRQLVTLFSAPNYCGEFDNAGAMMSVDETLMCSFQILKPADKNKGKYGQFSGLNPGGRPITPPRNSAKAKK

Row | binding (6His-PFN1 (wt) (human)) | binding [1] | Substance
1 | no binding | – | Alpha isoform of bacterially expressed recombinant PP1 catalytic subunit (from UniProt P62139 1-330) (enzyme)
2 | – | no binding | Profilin-1 (PFN1), untagged, wild type (from UniProt P07737 1-140)

— PMC3316545
